Target: T1, dopamine D-2 receptor (Rattus norvegicus, UniProt P61169)
T1 construct: Striatal tissues were excised, pooled and homogenized in 100 volumes (w/v) of ice-cold Tris-HCl buffer; from tissue; host or cells: rat striatum (male Sprague-Dawley), twice-centrifuged membrane homogenate
Assay: Competition binding using [^125 I]IBF, rat striatal membranes
Settings: [^125 I]IBF 0.15-0.30 nM, mean ± SEM of three to five determinations
Method: *0.15-0.30 nM [^125 I]IBF was incubated in the presence of the
indicated compounds in 7-11 concentrations and of membrane preparation
from rat striatum. Each value represents the mean ± SEM of three to
Male Sprague-Dawley rats (200-250 g) were decapitated, and the brains were removed and placed in ice. Striatal tissues were excised, pooled and homogenized in 100 volumes (w/v) of ice-cold Tris-HCl buffer (50 mM), pH 7.4. The homogenates were centrifuged at 20,000× g for 20 min. The resultant pellets were rehomogenized in the same buffer and centrifuged again. The final pellets were resuspended in assay buffer containing: 50 mM Tris buffer pH 7.4, 120 mM NaCl, 5 mM KCl, 2 mM CaCl2 and 1 mM MgCl2 and kept at -20° C. for the following binding assay.
The binding assays were performed by incubating 50 μl of tissue preparations containing 40-60 μg of protein with appropriate amounts of l-125 labeled ligand and competitors in a total volume of 0.2 ml of the assay buffer. After an incubation period of 15 min at 37° C. (with stirring), the samples were rapidly filtered in the cell harvester (Brandel M-24R) under vacuum through Whatman GF/B glass fiber filters pretreated with 0.2% protamine base and washed with 3×5 ml of cold (4° C.) 50 mM Tris-HCl buffer, pH 7.4. […] The filters were counted in a gamma counter (Beckman 5500) at an efficiency of 70%.

Protein sequences, listed by entry. Tags and fused reporters are not part of them.
UniProt P61169, whole entry: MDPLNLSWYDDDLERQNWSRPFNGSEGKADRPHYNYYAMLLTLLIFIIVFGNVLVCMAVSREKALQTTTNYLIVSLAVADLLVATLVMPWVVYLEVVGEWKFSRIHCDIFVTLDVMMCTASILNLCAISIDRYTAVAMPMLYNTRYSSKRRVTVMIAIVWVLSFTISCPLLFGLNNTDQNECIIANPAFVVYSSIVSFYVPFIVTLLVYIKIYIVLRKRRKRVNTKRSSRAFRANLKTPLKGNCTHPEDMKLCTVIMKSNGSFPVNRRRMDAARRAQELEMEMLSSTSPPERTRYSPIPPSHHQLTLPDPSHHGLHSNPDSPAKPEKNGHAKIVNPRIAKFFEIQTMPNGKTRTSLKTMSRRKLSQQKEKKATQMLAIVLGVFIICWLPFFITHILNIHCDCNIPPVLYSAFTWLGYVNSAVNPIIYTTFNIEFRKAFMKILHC

Ki: > 10 µM
Compound: CC(C)NC[C@H](O)COc1cccc2ccccc12 (racemic) [Propanolol]
